According to PubChem BioAssay AID602313 (National Center for Advancing Translational Sciences (NCATS), 2012):
About 760 (0.19%) of roughly 390,000 compounds were called active. This list was built around the results that the source calls inconclusive (neither active nor inactive); the mix of calls is not that of the screen. Calls follow the shape of the dose curve; as a rule, active = well fitted inhibition curve with a large enough effect; inconclusive = small, poorly fitted or top-dose-only effect; inactive = flat fitted curve, though single readings scatter. Potencies of inconclusive entries are doubtful fits and often do not repeat.

Assay: qHTS for Inhibitors of Vif-A3F Interactions: qHTS; also: nearly all actives have a fitted effect of over 65% in size
Conditions: HeLa A3F-eYFP + Vif (tagged APOBEC3F with the HIV-1 protein that degrades it), YFP fluorescence increase; series mostly up to 46.1 µM
From the text: The recent discovery and characterization of host restriction factors, which provide a potent defense to invading retroviruses, has provided new targets for antiviral drug development. APOBEC3G (A3G) and APOBEC3F (A3F) are potent cytidine deaminases that block HIV-1 replication; HIV-1 expresses the Vif protein, which counteracts A3G and A3F by binding to them and inducing their proteasomal degradation. The Vif-A3G and Vif-A3F interactions provide two potential targets for development of small molecules which can interfere with the ability of Vif to degrade A3G or A3F. […] To identify inhibitors that can interfere with Vif mediated degradation of A3G and A3F, we have developed Hela cell lines that stably express A3G or A3F tagged with eYFP at the C-terminal end (A3G-eYFP or A3F-eYFP, respectively) and Vif. In the absence of an inhibitor, Vif induces degradation of A3G-eYFP and A3F-eYFP, and the cells are not fluorescent. In the presence of an inhibitor, it is expected that Vif will be unable to degrade A3G-eYFP and/or A3F-eYFP, resulting in an increase in yellow fluorescence. In this assays Vif A3F was screened against the Molecular Library Small Molecule Repository (MLSMR). NIH Chemical Genomics Center [NCGC] NIH Molecular Libraries Probe Centers Network [MLPCN] MLPCN Grant: MH093245 Assay Submitter (PI): Vinay Pathak, National Cancer Institute
5 uL of 700 cells/well of A3F-YFP cells are dispensed into black, clear bottom plates. The plates are incubated overnight at 37 deg C. 23 nL of compounds are added by pintool. The plates are incubated overnight at 37 deg C and then read on the TTP Acumen (Ex 488/ Em 500-530).
Potency is read from the fitted curve at half-maximal effect.

| SMILES | Potency |
| --- | --- |
| O=C(CCNc1ccc(Br)cc1)c1cccc([N+](=O)[O-])c1 | inactive |
| COc1ccc(C(C)=O)cc1CC(=O)NCCCn1ccnc1 | inconclusive: 35.5 µM [inhibitor, single point] |
| CCOC(=O)c1sc(NC(=S)NC(=O)c2ccco2)nc1C | active: 22.4 µM |
| CCCCNC(=S)N/N=C/c1ccccc1F | inconclusive: 5.62 µM [inhibitor, single point] |
| CCN(CC)CCN1c2ccccc2Sc2ccc3ccccc3c21 | inactive |
| O=[N+]([O-])c1ccccc1S(=O)(=O)N1CCN(c2ccc(F)cc2)CC1 | inconclusive: 2.82 µM [inhibitor, partial curve, poor fit] |
| CC(C)C(c1nnnn1CCc1ccccc1)N1CCOCC1 (stereo not drawn) | inconclusive: 3.55 µM [inhibitor, partial curve, poor fit] |
| CSCCn1c(C(C)(C)C)cc(C(=O)O)c1C | inconclusive: 1 µM [inhibitor, partial curve, poor fit] |
| COc1ccc(N(CC(=O)NCCSc2ccccn2)S(=O)(=O)c2ccccc2)c(OC)c1 | inconclusive: 17.8 µM [inhibitor, single point] |
| Cc1ccc(S(=O)(=O)N(C)C)cc1NC(=O)COC(=O)C1CCCC1 | inconclusive: 35.5 µM [inhibitor, partial curve, poor fit] |
| Cn1nc(C(=O)NCC(c2cccs2)N2CCOCC2)c2ccccc2c1=O (stereo not drawn) | inconclusive: 20 µM [inhibitor, partial curve, poor fit] |
| O=C(N/N=C/c1cccc(O)c1)c1ccc(COc2ccccc2Br)cc1 | inconclusive: 35.5 µM [inhibitor, single point] |
| Cc1ccccc1NC(=O)COC(=O)c1n[nH]c(=O)c2ccccc12 | inconclusive: 5.01 µM [inhibitor, single point] |
| Cc1cccc(Nc2nnc(SC/C(O)=C(\C#N)c3nc4ccccc4[nH]3)s2)c1C | inconclusive: 11.2 µM [inhibitor, single point] |
| CCN=C1S/C(=C\c2cn(CC(=O)NCc3ccco3)c3ccccc23)C(=O)N1CC | inconclusive: 28.2 µM [inhibitor, partial curve, poor fit] |
| Cc1ccc(CSc2nc3ccccc3c(=O)[nH]2)cc1 | inconclusive: 5.01 µM [inhibitor, single point] |
| CCOC(=O)Oc1c(OC)cc(C(=O)O[C@@H]2C[C@@H]3CN4CCc5c([nH]c6cc(OC)ccc56)[C@H]4C[C@@H]3[C@H](C(=O)OC)[C@H]2OC)cc1OC | inconclusive: 22.4 µM [inhibitor, partial curve, poor fit] |
| COCCCNC(=O)c1cccn2c(=O)c3cc4ccccc4cc3nc12 | inconclusive: 31.6 µM [inhibitor, single point] |
| CCOC(=O)c1cc2n(c1/N=C/N(C)C)-c1ccccc1C2=O | active: 22.4 µM |
| Cc1[nH]c2ccccc2c1-c1csc(N)n1 | inconclusive: 35.5 µM [inhibitor, single point] |
| O=C1CCC/C(=N/NC(=O)c2sc3ccccc3c2Cl)C1 | inconclusive: 14.1 µM [inhibitor, partial curve, poor fit] |
| O=C(Nc1ccc(Oc2ccc(Cl)cc2)c(Cl)c1)c1cc(I)cc(I)c1O | inactive |
| Cc1cc(N2C(=O)C(O)=C(C(=O)c3ccco3)C2c2cccc(O)c2)no1 (stereo not drawn) | inactive |

| SMILES | Potency |
| --- | --- |
| CCc1n[nH]c(=S)n1/N=C/c1c[nH]c2ccc(Br)cc12 | inconclusive: 2.24 µM [inhibitor, partial curve, poor fit] |
| CCc1ccc(S(=O)(=O)c2cn(Cc3ccccc3)c3cc(N4CCCC4)c(F)cc3c2=O)cc1 | inactive |
| CCN(CC)c1ccc(/C=C(/C#N)C(=O)NCc2ccccc2)o1 | inconclusive: 3.16 µM [inhibitor, partial curve, poor fit] |
| CCCC(=O)Nc1ccc(N2CCN(C(=O)c3cc4ccccc4o3)CC2)cc1 | inconclusive: 35.5 µM [inhibitor, single point] |
| Oc1ccc(C(c2nnnn2CCc2ccccc2)N2CCN(c3nc4ccccc4s3)CC2)cc1 (stereo not drawn) | inactive |
| Cc1ccc(N2C(=O)C3CC(c4ccccc4)=C4C5C=CC(C6C(=O)N(c7ccc(C)cc7)C(=O)C56)C4C3C2=O)cc1 (stereo not drawn) | inactive |
| Cc1ccccc1NC(=O)C1CCN(S(=O)(=O)c2c(C)noc2/C=C/c2ccco2)CC1 | inactive |
| CC(C)(C)NC(=O)C(c1ccc(Cl)cc1)N(Cc1ccco1)C(=O)CCl (stereo not drawn) | inactive |
| Cc1nc(C(C)NC(=O)CCc2nnc(CCCc3ccccc3)o2)c(C)s1 (stereo not drawn) | inactive |
| CCOc1ccc(N(CC(=O)NC2CCCC2)C(=O)CCC(=O)Nc2nccs2)cc1 | inactive |
| Cc1ccc2cc3cc(C(=O)N4CCCCC4C)oc3nc2c1 (stereo not drawn) | inactive |
| COc1ccc(C(=O)c2sc3nc4c(c(C(F)(F)F)c3c2N)CN(C(C)=O)CC4)cc1OC | active: 22.4 µM |
| CC(C)N(C(=O)[C@H]1C[C@H](CC(=O)NCc2cccc(C(F)(F)F)c2)C(=O)N2CCc3c([nH]c4cc(CCC(=O)N(C)C)ccc34)[C@]12C)C(C)C | inactive |
| COc1ccc(/C=C/c2ccc3ccccc3[n+]2C)cc1OC | inconclusive: 15.8 µM [inhibitor, single point] |
| CC(C)(C)OC(=O)NCc1ccc(NC(=O)c2nc[nH]c2C(=O)NCCCNC(=O)c2[nH]cnc2C(=O)Nc2ccc(CNC(=O)OC(C)(C)C)cc2)cc1 | inconclusive: 11.2 µM [inhibitor, partial curve, poor fit] |
| COc1ccc(C(=O)NC2(C(F)(F)F)C(=O)N(Cc3ccco3)C3=C2C(=O)CC(C)(C)C3)cc1OC (stereo not drawn) | inconclusive: 6.31 µM [inhibitor, single point] |
| COC(=O)c1ccc(CSc2nnc(NC(=O)c3cc4c(s3)CCCC4)s2)cc1 | inactive |
| Cc1ccccc1CCNC(=O)c1ccc(Cn2c(=O)c3cccn3c3cccnc32)cc1 | inconclusive: 3.98 µM [inhibitor, partial curve, poor fit] |
| Cc1ccc(NC(=O)N2CCN(S(=O)(=O)c3ccccc3)CC2)cc1 | inactive |
| CCCC(=O)Nc1cc(OC)c(NC(=S)Nc2cccc(C)c2)cc1OC | inconclusive: 20 µM [inhibitor, partial curve, poor fit] |
| Cc1cccc(C(=O)NC(=S)NC(C)c2ccccc2)c1 (stereo not drawn) | inconclusive: 35.5 µM [inhibitor, single point] |
| CCc1ccc(NC(=O)CCCN2C(=S)NC(C)(C)CC2C)cc1 (stereo not drawn) | inconclusive: 10 µM [inhibitor, partial curve, poor fit] |
| O=C(O)c1cc([N+](=O)[O-])ccc1NCc1ccccc1 | inactive |

An excerpt of the results above:

| SMILES | Potency |
| --- | --- |
| CCc1ccc(S(=O)(=O)c2cn(Cc3ccccc3)c3cc(N4CCCC4)c(F)cc3c2=O)cc1 | inactive |
| CCN(CC)c1ccc(/C=C(/C#N)C(=O)NCc2ccccc2)o1 | inconclusive: 3.16 µM [inhibitor, partial curve, poor fit] |
| CCCC(=O)Nc1ccc(N2CCN(C(=O)c3cc4ccccc4o3)CC2)cc1 | inconclusive: 35.5 µM [inhibitor, single point] |
| Oc1ccc(C(c2nnnn2CCc2ccccc2)N2CCN(c3nc4ccccc4s3)CC2)cc1 (stereo not drawn) | inactive |
| Cc1ccc(N2C(=O)C3CC(c4ccccc4)=C4C5C=CC(C6C(=O)N(c7ccc(C)cc7)C(=O)C56)C4C3C2=O)cc1 (stereo not drawn) | inactive |
| Cc1ccccc1NC(=O)C1CCN(S(=O)(=O)c2c(C)noc2/C=C/c2ccco2)CC1 | inactive |
| CC(C)(C)NC(=O)C(c1ccc(Cl)cc1)N(Cc1ccco1)C(=O)CCl (stereo not drawn) | inactive |
| Cc1nc(C(C)NC(=O)CCc2nnc(CCCc3ccccc3)o2)c(C)s1 (stereo not drawn) | inactive |
| CCOc1ccc(N(CC(=O)NC2CCCC2)C(=O)CCC(=O)Nc2nccs2)cc1 | inactive |
| Cc1ccc2cc3cc(C(=O)N4CCCCC4C)oc3nc2c1 (stereo not drawn) | inactive |
| COc1ccc(C(=O)c2sc3nc4c(c(C(F)(F)F)c3c2N)CN(C(C)=O)CC4)cc1OC | active: 22.4 µM |
| CC(C)N(C(=O)[C@H]1C[C@H](CC(=O)NCc2cccc(C(F)(F)F)c2)C(=O)N2CCc3c([nH]c4cc(CCC(=O)N(C)C)ccc34)[C@]12C)C(C)C | inactive |
| COc1ccc(/C=C/c2ccc3ccccc3[n+]2C)cc1OC | inconclusive: 15.8 µM [inhibitor, single point] |
| CC(C)(C)OC(=O)NCc1ccc(NC(=O)c2nc[nH]c2C(=O)NCCCNC(=O)c2[nH]cnc2C(=O)Nc2ccc(CNC(=O)OC(C)(C)C)cc2)cc1 | inconclusive: 11.2 µM [inhibitor, partial curve, poor fit] |
| COc1ccc(C(=O)NC2(C(F)(F)F)C(=O)N(Cc3ccco3)C3=C2C(=O)CC(C)(C)C3)cc1OC (stereo not drawn) | inconclusive: 6.31 µM [inhibitor, single point] |
| COC(=O)c1ccc(CSc2nnc(NC(=O)c3cc4c(s3)CCCC4)s2)cc1 | inactive |
| Cc1ccccc1CCNC(=O)c1ccc(Cn2c(=O)c3cccn3c3cccnc32)cc1 | inconclusive: 3.98 µM [inhibitor, partial curve, poor fit] |

(cont.)

| SMILES | Potency |
| --- | --- |
| CCCCNC(=O)CSc1nnc(C)c2c(C)n(-c3ccccc3)nc12 | inactive |
| O=[N+]([O-])c1cccc(SSc2cccc([N+](=O)[O-])c2)c1 | inconclusive: 6.31 µM [inhibitor, single point] |
| S=C(NCC1COc2ccccc2O1)Nc1ccc(Br)cc1 (stereo not drawn) | inconclusive: 25.1 µM [inhibitor, single point] |
| Cc1ccc(S(=O)(=O)N2CCCCC2)cc1C(=O)N1CCCCCC1 | inconclusive: 1.12 µM [inhibitor, full curve, poor fit] |
| O=C1C(Cl)=C(NCc2ccco2)C(=O)c2ccccc21 | inconclusive: 12.6 µM [inhibitor, partial curve, poor fit] |
| Cc1ccc(N=Nc2c(N)nn(-c3ccccc3)c2N)cc1 | inactive |
| Cc1c(C(=O)N/N=C/c2ccc(Cl)cc2)[nH]c2ccc(Cl)cc12 | inconclusive: 35.5 µM [inhibitor, single point] |
| Cc1ccc(-n2ncc3c(N4CCN(C)CC4)ncnc32)cc1Cl | inactive |
| CC(=O)c1ccc(OCCCN2CCCCC2)cc1 | inactive |
| COC(=O)c1c(NC(=O)c2cccs2)sc2c1CCC(C)C2 (stereo not drawn) | inactive |
| Cc1cccc(NC(=O)c2cc(NC(=O)C3CCCCC3C(=O)O)ccc2N2CCCCC2)c1 (stereo not drawn) | inactive |
| O=C(O)C/C(=C\c1ccc2c(c1)OCO2)c1nc2ccccc2s1 | inconclusive: 22.4 µM [inhibitor, single point] |
| CCn1nc(C(=O)NCC(c2cccs2)N2CCOCC2)c2ccccc2c1=O (stereo not drawn) | inconclusive: 1.12 µM [inhibitor, full curve, poor fit] |
| CC1(C)CCN2CCC(C)(C)c3c(O)ccc1c32 | inconclusive: 15.8 µM [inhibitor, partial curve, poor fit] |
| O=C(NCc1nnnn1-c1ccc(F)cc1)c1ccc([N+](=O)[O-])o1 | inconclusive: 5.62 µM [inhibitor, single point] |
| CCCNc1c(NC(=O)c2ccc3c(c2)OCO3)c(=O)oc2ccccc12 | inconclusive: 5.62 µM [inhibitor, single point] |
| Cc1ccc(-c2nc3ccc(Cl)cn3c2CC(C)(C)C)cc1 | inconclusive: 3.16 µM [inhibitor, full curve, poor fit] |
| COC(=O)N1C(=O)[C@](c2ccccc2)(C2CCCCC2)N1C(=O)OC | inactive |
| COc1ccc(-c2noc(-c3ccc(N4CCCCC4C)c([N+](=O)[O-])c3)n2)cc1OC (stereo not drawn) | inactive |
| COc1ccccc1OCCCOc1cccc(/C=C2\SC(=O)NC2=O)c1 | inconclusive: 35.5 µM [inhibitor, partial curve, poor fit] |
| CC(C)Cc1nnc(NC(=O)CCc2c[nH]c3ccccc23)s1 | inconclusive: 2.82 µM [inhibitor, single point] |
| Cc1ccnc(NC(=O)c2sc3ccccc3c2Cl)c1 | inactive |
